PubChem BioAssay AID1259259 | Sanger Institute, 2017

Aim: 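Kinome siRNA search for kinases essential alone or combined with trametinib, cetuximab or BYL719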 (primary screen)
System: SW1463 human colorectal cancer cells
Knock-down reagent: siRNA pool against human genes
Treatment: DMSO vehicle, or one anchor drug: BYL719 at 1 µM, cetuximab at 5 µg/ml, or trametinib at 10 nM
Measurement: 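Viability as fraction of control pool 2 (non-targeting), replicate mean; knock-down robust z-score without any drug; synergy score averaged for each anchor drug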
Direction: robust z-score, knock-down alone: higher = more viable cells after knock-down; viability, knock-down alone: higher = more viable cells
Active means: 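Knock-down called essential when its robust z-score without drug falls below -3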
Calls: active = essential: viability loss from knock-down alone; inactive = no change from knock-down alone
The whole screen tested 794 reagents; this is a part drawn at random. Of all reagents, 9 (1.1%) got an active call. 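Calls rest on knock-down alone, not drug synergy; viability values seem capped at 1.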 Reagents against one gene are numbered here. Further read-outs or replicates are left out here. Not given: the amount of reagent, the time to read-out.

gene knocked down	reagent	robust z-score, knock-down alone	viability, knock-down alone (fraction of control)	activity call
PIP5K1C (phosphatidylinositol-4-phosphate 5-kinase type 1 gamma)	1	-0.492	0.896	inactive
AURKB (aurora kinase B)	1	-0.348	0.905	inactive
SBK1 (SH3 domain binding kinase 1)	1	-0.315	0.907	inactive
TPD52L3 (TPD52 like 3)	1	-0.149	0.918	inactive
PHKB (phosphorylase kinase regulatory subunit beta)	1	1.13	1	inactive
CSNK2B (casein kinase 2 beta)	1	-0.0826	0.922	inactive
DYRK3 (dual specificity tyrosine phosphorylation regulated kinase 3)	1	-0.48	0.897	inactive
PNCK (pregnancy up-regulated nonubiquitous CaM kinase)	1	1.13	1	inactive
GATA3 (GATA binding protein 3)	1	0.961	0.989	inactive
BRDT (bromodomain testis associated)	1	1.13	1	inactive
TRPM7	1	-1.03	0.862	inactive
SF3B1 (splicing factor 3b subunit 1)	1	-0.98	0.865	inactive
RIPK1 (receptor interacting serine/threonine kinase 1)	1	-1.09	0.858	inactive
FLT4 (fms related receptor tyrosine kinase 4)	1	-0.393	0.902	inactive
PI4KB (phosphatidylinositol 4-kinase beta)	1	1.13	1	inactive
LMTK3 (lemur tail kinase 3)	1	0.774	0.977	inactive
EPHA4 (EPH receptor A4)	1	1.13	1	inactive
ROR2 (ROR family WNT receptor 2)	1	-0.707	0.882	inactive
COASY (Coenzyme A synthase)	1	-4.25	0.655	active
PRP4K (pre-mRNA processing factor kinase PRP4K)	1	-2.37	0.775	inactive
DNMT3A (DNA methyltransferase 3 alpha)	1	-0.258	0.911	inactive
CLK3 (CDC like kinase 3)	1	-0.412	0.901	inactive
CDKN1C (cyclin dependent kinase inhibitor 1C)	1	0.0435	0.93	inactive
CAMKK1 (calcium/calmodulin dependent protein kinase kinase 1)	1	0.0732	0.932	inactive
PKDCC (protein kinase domain containing, cytoplasmic)	1	0.769	0.977	inactive
NUAK2 (NUAK family kinase 2)	1	-0.308	0.908	inactive
ILK (integrin linked kinase)	1	1.13	1	inactive
ILK (integrin linked kinase)	2	-0.242	0.912	inactive
STK25 (serine/threonine kinase 25)	1	0.072	0.932	inactive
PIP5K1B (phosphatidylinositol-4-phosphate 5-kinase type 1 beta)	1	0.155	0.938	inactive
BMX (BMX non-receptor tyrosine kinase)	1	-1.06	0.859	inactive
PIK3R1 (phosphoinositide-3-kinase regulatory subunit 1)	1	0.583	0.965	inactive
TGFBR3 (transforming growth factor beta receptor 3)	1	0.912	0.986	inactive
NEK3 (NIMA related kinase 3)	1	-2.47	0.769	inactive
STK32A (serine/threonine kinase 32A)	1	1.13	1	inactive
EIF2AK4 (eukaryotic translation initiation factor 2 alpha kinase 4)	1	-0.194	0.915	inactive
CDK2 (cyclin dependent kinase 2)	1	0.605	0.966	inactive
PTGS1 (prostaglandin-endoperoxide synthase 1)	1	-0.896	0.87	inactive
OBSCN	1	0.209	0.941	inactive
LMTK2 (lemur tail kinase 2)	1	0.452	0.957	inactive
PHKG2 (phosphorylase kinase catalytic subunit gamma 2)	1	0.407	0.954	inactive
CHKB (choline kinase beta)	1	-0.0247	0.926	inactive
LYN (LYN proto-oncogene, Src family tyrosine kinase)	1	-0.219	0.914	inactive
CAMK2N1 (calcium/calmodulin dependent protein kinase II inhibitor 1)	1	-2.56	0.763	inactive
STK10 (serine/threonine kinase 10)	1	-1.12	0.856	inactive
CHD4 (chromodomain helicase DNA binding protein 4)	1	-4.31	0.651	active
ASPM (assembly factor for spindle microtubules)	1	0.315	0.948	inactive
EIF2AK2 (eukaryotic translation initiation factor 2 alpha kinase 2)	1	0.101	0.934	inactive
PDXK (pyridoxal kinase)	1	1.13	1	inactive
AMER1 (APC membrane recruitment protein 1)	1	0.758	0.976	inactive
GRK3 (G protein-coupled receptor kinase 3)	1	1.13	1	inactive
EFNB3 (ephrin B3)	1	-1.15	0.854	inactive
PAPSS1 (3'-phosphoadenosine 5'-phosphosulfate synthase 1)	1	0.151	0.937	inactive
MSR1 (macrophage scavenger receptor 1)	1	-0.232	0.913	inactive
GRK6 (G protein-coupled receptor kinase 6)	1	-0.453	0.899	inactive
PRKCZ (protein kinase C zeta)	1	-0.371	0.904	inactive
MAP3K4 (mitogen-activated protein kinase kinase kinase 4)	1	0.502	0.96	inactive
RAF1 (Raf-1 proto-oncogene, serine/threonine kinase)	1	0.0342	0.93	inactive
ATM (ATM serine/threonine kinase)	1	-0.3	0.908	inactive
KSR2 (kinase suppressor of ras 2)	1	-0.531	0.894	inactive
STK35 (serine/threonine kinase 35)	1	-0.59	0.89	inactive
MAP4K1 (mitogen-activated protein kinase kinase kinase kinase 1)	1	0.845	0.982	inactive
MAP3K15 (mitogen-activated protein kinase kinase kinase 15)	1	1.13	1	inactive

10 entries from above, arranged by “viability, knock-down alone (fraction of control)”, lowest first.
gene knocked down	reagent	robust z-score, knock-down alone	viability, knock-down alone (fraction of control)	activity call
CHD4 (chromodomain helicase DNA binding protein 4)	1	-4.31	0.651	active
CAMK2N1 (calcium/calmodulin dependent protein kinase II inhibitor 1)	1	-2.56	0.763	inactive
EFNB3 (ephrin B3)	1	-1.15	0.854	inactive
STK10 (serine/threonine kinase 10)	1	-1.12	0.856	inactive
LYN (LYN proto-oncogene, Src family tyrosine kinase)	1	-0.219	0.914	inactive
EIF2AK2 (eukaryotic translation initiation factor 2 alpha kinase 2)	1	0.101	0.934	inactive
ASPM (assembly factor for spindle microtubules)	1	0.315	0.948	inactive
AMER1 (APC membrane recruitment protein 1)	1	0.758	0.976	inactive
PDXK (pyridoxal kinase)	1	1.13	1	inactive
GRK3 (G protein-coupled receptor kinase 3)	1	1.13	1	inactive
